Values quoted from earlier work as cited in patent publication US7220402B1, “Alpha-fetoprotein peptides and uses for imaging” (Ordway Research Institute, Inc., priority 2001, dated 2007).
At least one structure is not confirmed: it was looked up by name or label, or the drawing left a doubt.

Conditions: cited from earlier work

O=C([O-])CN(CCN(CC(=O)[O-])CC(=O)[O-])CCN(CC(=O)[O-])CC(=O)[O-].[Gd+3] [Gd(DTPA)^2-]
stability (formation) constant log K: 22.4
